No constants are given. Whether binding was seen depends on the method and setting. In cells and extracts the contact can be indirect. Some results given as binding are weak or reduced against the parent protein; the word gives no strength.
Legend:
[1] = molecular target: interferon gamma-inducible protein 16 (IFI16) (human (endogenous in BCBL-1)) (UniProt Q16666); test: proximity ligation; DUOLink PLA in acetone-fixed and permeabilized BCBL-1 cells; IFI16 antibody with antibody to CHD4, Sin3A, CoREST or IgG; dots counted in at least 15 cells
[2] = molecular target: histone deacetylase 1 (HDAC1) (human (endogenous in BCBL-1)) (UniProt Q13547); test: proximity ligation; DUOLink PLA of HDAC1 with CHD4 or Sin3A in BCBL-1 cells transduced with control shRNA (shC) or shIFI16 (IFI16 knock-down)

Amino acid sequences for entries named in this document (tags omitted).
UniProt Q16666: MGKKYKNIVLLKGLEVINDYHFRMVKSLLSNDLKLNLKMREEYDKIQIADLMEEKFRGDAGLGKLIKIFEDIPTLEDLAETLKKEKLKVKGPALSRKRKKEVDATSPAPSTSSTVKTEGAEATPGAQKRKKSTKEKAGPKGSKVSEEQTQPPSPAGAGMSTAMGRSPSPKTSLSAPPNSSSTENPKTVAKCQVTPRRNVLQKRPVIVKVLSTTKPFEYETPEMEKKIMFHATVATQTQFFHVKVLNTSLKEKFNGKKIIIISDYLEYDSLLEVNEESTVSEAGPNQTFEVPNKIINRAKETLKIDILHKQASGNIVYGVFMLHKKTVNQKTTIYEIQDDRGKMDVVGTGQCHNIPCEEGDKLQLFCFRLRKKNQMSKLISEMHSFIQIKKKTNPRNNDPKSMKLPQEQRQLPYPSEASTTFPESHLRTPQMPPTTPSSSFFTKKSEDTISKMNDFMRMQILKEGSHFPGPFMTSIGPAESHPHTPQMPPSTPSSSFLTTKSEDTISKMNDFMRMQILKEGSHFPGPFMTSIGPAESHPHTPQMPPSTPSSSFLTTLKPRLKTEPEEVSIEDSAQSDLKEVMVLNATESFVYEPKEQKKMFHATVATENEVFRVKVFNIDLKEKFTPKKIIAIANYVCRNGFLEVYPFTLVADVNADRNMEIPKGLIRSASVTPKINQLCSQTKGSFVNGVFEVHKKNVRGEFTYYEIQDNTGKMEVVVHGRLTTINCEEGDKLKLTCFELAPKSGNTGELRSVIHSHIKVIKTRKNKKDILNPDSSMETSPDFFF
UniProt Q13547: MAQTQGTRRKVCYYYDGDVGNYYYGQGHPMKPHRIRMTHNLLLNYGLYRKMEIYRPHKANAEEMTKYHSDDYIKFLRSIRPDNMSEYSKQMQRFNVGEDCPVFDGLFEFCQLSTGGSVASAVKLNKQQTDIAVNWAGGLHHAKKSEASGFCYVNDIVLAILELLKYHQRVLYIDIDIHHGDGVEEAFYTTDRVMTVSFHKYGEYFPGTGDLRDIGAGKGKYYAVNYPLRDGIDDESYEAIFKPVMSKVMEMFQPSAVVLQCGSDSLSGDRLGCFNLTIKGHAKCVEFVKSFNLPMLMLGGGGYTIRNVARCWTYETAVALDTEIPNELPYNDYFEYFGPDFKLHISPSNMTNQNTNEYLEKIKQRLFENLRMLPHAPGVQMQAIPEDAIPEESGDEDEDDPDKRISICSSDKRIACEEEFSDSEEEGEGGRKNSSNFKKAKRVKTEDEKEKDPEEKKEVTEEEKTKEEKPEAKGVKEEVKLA
UniProt Q14839: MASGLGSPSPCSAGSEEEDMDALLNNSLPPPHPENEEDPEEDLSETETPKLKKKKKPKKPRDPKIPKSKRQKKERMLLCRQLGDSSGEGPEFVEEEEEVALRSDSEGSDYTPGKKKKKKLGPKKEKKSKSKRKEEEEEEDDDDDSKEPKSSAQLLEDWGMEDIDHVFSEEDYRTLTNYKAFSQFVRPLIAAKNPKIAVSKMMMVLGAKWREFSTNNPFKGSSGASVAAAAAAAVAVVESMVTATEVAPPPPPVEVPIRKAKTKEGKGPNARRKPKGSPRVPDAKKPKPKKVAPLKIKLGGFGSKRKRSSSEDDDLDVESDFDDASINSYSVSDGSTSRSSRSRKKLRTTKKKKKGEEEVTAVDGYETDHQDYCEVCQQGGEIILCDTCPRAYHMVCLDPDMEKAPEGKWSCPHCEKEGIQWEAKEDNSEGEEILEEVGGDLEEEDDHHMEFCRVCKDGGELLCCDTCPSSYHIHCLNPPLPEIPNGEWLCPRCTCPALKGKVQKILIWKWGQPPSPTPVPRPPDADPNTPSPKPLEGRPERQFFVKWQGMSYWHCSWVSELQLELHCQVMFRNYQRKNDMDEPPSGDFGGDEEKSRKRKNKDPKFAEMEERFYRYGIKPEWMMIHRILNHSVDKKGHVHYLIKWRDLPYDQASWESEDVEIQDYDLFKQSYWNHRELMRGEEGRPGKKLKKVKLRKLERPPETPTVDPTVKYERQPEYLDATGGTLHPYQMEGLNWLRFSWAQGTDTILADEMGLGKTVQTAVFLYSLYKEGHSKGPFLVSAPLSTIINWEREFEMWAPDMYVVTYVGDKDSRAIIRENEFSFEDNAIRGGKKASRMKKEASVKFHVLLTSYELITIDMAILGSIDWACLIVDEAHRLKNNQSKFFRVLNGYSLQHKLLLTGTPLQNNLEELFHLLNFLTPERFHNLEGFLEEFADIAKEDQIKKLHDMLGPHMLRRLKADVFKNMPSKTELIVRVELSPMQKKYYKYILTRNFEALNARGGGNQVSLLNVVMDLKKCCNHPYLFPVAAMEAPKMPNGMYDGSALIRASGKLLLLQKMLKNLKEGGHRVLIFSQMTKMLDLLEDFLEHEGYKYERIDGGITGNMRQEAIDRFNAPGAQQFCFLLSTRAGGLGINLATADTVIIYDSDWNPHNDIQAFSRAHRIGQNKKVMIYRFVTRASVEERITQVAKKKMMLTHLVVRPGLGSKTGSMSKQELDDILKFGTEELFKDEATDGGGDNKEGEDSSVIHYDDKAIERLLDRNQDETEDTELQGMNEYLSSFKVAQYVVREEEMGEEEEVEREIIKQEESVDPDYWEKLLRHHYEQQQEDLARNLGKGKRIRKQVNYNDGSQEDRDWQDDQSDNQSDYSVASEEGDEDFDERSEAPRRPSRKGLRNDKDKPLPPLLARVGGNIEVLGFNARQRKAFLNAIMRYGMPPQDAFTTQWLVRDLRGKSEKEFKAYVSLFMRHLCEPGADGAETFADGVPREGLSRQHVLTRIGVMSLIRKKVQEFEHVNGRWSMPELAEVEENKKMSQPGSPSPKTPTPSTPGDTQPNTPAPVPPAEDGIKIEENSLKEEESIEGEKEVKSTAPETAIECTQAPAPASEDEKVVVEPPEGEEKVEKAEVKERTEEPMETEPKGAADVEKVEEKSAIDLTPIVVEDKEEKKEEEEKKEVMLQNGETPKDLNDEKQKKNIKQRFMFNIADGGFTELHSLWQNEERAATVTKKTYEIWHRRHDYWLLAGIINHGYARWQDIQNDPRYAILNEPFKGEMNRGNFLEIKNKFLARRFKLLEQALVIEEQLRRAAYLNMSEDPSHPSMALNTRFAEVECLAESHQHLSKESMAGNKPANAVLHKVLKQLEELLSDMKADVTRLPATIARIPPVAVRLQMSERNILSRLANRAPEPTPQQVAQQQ
UniProt Q9UKL0: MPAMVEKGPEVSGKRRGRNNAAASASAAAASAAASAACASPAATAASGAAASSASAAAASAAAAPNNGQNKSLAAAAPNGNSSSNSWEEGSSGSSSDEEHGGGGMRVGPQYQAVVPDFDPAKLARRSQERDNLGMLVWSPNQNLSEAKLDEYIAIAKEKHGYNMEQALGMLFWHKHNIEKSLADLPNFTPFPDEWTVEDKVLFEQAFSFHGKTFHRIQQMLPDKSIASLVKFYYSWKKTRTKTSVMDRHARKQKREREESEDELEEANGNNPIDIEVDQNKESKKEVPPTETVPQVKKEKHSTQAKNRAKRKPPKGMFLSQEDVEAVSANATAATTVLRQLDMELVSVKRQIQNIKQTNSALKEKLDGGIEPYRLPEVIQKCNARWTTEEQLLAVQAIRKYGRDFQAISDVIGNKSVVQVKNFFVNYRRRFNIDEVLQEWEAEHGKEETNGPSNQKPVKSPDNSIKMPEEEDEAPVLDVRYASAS

| binding [1] | binding [2] | Substance |
| --- | --- | --- |
| binds | binds | CHD4 (from UniProt Q14839 1-1912) |
| no binding | – | CoREST (from UniProt Q9UKL0 1-485) |

From PMC12300445
